In patent US20230277593A1:
Results are given in words; binding and its absence hold for the method and conditions named. Some results given as binding are weak or reduced against the parent protein; the word gives no strength.

Biological target: EGFR-Fc (R&D Systems) (UniProt P00533)
Experiment: flow cytometry of CAR on primary T cells with labeled probe

B1: CT-482 EGFR scFv CAR activator (scFv, not shown: small tags and cut ends)
scFv: EMQLVESGGGFVKPGGSLKLSCAASGFAFSHYDMSWVRQTPKQRLEWVAYIASGGDITYYADTVKGRFTISRDNAQNTLYLQMSSLKSEDTAMFYCSRSSYGNNGDALDFWGQGTSVTVSSGGGGSGGGGSGGGGSGGDVVMTQTPLSLPVSLGDQASISCRSSQSLVHSNGNTYLHWYLQKPGQSPKLLIYKVSNRFSGVPDRFSGSGSGTDFTLKISRVEAEDLGVYFCSQSTHVLTFGSGTKLEIK
binding: binds
